Assay results reported in patent publication US20080279855A1, “Dna Replication Modulating Peptides, Nucleic Acids Encoding Them, and Their Use in Pharmaceutical Compositions” (CENTRE NATIONAL DE LA RECHERCHE SCIENTIFIQUE, priority 2004, published 2008).
These are yes or no findings as the source states them, for the method shown. Some binding calls cover weakened binding; strength is not graded here.

Key:
HsGem(80-212) (human) [1] = molecular target: HsGem(80-212) (human) (UniProt O75496); assay: sucrose gradient centrifugation
HsGem(80-212) (human) [2] = molecular target: HsGem(80-212) (human) (UniProt O75496); assay: sucrose gradient centrifugation, SDS-PAGE, Coomassie scan

binding (HsGem(80-212) (human) [1]): binds | binding (HsGem(80-212) (human) [2]): binds
B1: HsGem(80-212) (protein)
chain: GVTQESFDLMIKENPSSQYWKEVAEKRRKALYEALKENEKLHKEIEQKDNEIARLKKENKELAEVAEHVQYMAELIERLNGEPLDNFESLDNQEFDSEEETVEDSLVEDSEIGTCAEGTVSSSTDAKPCI
